Consider five substances from patent publication US20040208880A1.

Amino acid sequences for entries named in this document (tags omitted). A change or cut given only in a name is not applied to a line headed by its entry.
UniProt P03372: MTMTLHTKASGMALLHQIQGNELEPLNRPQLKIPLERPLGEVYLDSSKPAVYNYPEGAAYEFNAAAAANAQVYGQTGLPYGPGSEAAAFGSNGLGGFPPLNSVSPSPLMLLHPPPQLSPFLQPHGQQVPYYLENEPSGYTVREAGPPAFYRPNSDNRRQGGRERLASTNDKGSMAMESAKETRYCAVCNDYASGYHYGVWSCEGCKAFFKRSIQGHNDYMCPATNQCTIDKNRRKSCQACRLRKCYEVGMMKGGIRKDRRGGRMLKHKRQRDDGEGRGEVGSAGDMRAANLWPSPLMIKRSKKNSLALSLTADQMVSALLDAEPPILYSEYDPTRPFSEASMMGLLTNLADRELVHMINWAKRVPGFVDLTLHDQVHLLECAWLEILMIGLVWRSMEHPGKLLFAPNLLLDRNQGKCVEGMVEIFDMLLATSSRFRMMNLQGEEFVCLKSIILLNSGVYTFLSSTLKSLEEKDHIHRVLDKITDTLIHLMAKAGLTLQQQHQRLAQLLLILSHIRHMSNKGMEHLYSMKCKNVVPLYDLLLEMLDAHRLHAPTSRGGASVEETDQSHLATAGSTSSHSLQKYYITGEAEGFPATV
UniProt Q13153: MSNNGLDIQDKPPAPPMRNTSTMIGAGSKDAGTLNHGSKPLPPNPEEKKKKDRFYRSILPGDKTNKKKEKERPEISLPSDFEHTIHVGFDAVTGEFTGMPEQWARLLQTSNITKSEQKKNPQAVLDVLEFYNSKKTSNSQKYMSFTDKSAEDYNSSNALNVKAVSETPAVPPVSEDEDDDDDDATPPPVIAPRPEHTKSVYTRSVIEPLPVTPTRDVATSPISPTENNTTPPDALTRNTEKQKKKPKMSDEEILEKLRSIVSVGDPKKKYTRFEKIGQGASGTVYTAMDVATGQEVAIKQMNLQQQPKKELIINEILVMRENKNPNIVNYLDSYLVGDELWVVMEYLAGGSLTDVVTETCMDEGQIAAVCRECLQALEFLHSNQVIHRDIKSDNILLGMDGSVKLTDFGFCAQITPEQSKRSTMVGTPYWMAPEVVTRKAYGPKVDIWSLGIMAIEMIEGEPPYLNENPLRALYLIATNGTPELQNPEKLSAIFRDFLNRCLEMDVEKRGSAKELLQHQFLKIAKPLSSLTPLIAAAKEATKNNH
UniProt P63167: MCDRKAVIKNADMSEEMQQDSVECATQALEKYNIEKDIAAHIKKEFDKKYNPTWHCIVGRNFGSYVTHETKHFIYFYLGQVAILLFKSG
UniProt P61273: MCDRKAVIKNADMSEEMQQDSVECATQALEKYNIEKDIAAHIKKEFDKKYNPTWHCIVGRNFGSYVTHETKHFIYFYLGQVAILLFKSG

Results are given in words; binding and its absence hold for the method and conditions named. For some assays here: Binding seen in cells or lysates may run through a third protein. Some entries that bind do so weakly or less than the wild type.

Experiment [1] deals with GBD-Pak1 (amino acids 1-270) (human). The experiment is described as follows: yeast two-hybrid, library screen and one-on-one transformation.
For experiment [2], the target named is estrogen receptor alpha (ER), full-length (UniProt P03372). The experiment in a line: GST pull-down with in vitro translated 35S-ER.
Experiment [3] has as its target p21-activated protein kinase 1 (Pak1), full-length, amino acids 1-545 (human) (UniProt Q13153). The experiment is described as follows: GST pull-down with in vitro translated 35S-Pak1.
In experiment [4] the target is dynein light chain-1/protein inhibitor of nitric oxide synthase (DLC1/PIN), amino acids 1-89 (human) (UniProt P63167). The experiment is described as follows: GST pull-down, GST-ER deletion constructs with in vitro translated 35S-DLC1.
The target in experiment [5] is p21-activated protein kinase 1 (Pak1), full-length, amino acids 1-545 (human) (UniProt Q13153). The experiment in a line: GST-AB domain pull-down with in vitro translated 35S-labeled Pak1.
Experiment [6] has as its target dynein light chain-1/protein inhibitor of nitric oxide synthase (DLC1/PIN), amino acids 1-89 (human) (UniProt P63167). The experiment is described as follows: GST-AB domain pull-down with in vitro translated 35S-labeled DLC1.
For experiment [7] the target is unchanged. The experiment in a line: GST pull-down with in vitro translated DLC1/PIN.

GAD-DLC1/PIN (from UniProt P61273 1-89): in experiment [1], the binding result is “binds”.

“GST-DLC1/PIN fusion protein (wild type) (from UniProt P61273 1-89)”: the binding entry in experiment [2] and in experiment [3] was “binds” each time.

For “GST-ER AB domain (amino acid 1-180 of ER) (from UniProt P03372 1-180)”, the binding result in experiment [4], in experiment [5] and in experiment [6] was “binds” in each case.

As to “GST-Pak1 PIX binding domain (amino acids 132-270) (from UniProt Q13153 132-270)”, the binding result in experiment [7] is “binds”.

Consider “GST-Pak1 fusion protein, wild-type (amino acids 1-545) (from UniProt Q13153 1-545) (enzyme)”, for which the binding entry in experiment [7] was “binds”.
